Source: PMC11470877

Chains of the proteins cited; added tags and fusions are not shown.
UniProt O54851: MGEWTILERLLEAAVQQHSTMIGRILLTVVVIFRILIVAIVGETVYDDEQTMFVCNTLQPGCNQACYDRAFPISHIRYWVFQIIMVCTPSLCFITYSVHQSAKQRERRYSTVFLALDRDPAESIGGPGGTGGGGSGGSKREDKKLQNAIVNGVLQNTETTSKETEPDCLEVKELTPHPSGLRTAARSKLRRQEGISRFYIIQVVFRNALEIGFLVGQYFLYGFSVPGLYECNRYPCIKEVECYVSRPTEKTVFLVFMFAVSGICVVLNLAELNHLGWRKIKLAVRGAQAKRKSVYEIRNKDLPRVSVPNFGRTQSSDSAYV
UniProt Q12923: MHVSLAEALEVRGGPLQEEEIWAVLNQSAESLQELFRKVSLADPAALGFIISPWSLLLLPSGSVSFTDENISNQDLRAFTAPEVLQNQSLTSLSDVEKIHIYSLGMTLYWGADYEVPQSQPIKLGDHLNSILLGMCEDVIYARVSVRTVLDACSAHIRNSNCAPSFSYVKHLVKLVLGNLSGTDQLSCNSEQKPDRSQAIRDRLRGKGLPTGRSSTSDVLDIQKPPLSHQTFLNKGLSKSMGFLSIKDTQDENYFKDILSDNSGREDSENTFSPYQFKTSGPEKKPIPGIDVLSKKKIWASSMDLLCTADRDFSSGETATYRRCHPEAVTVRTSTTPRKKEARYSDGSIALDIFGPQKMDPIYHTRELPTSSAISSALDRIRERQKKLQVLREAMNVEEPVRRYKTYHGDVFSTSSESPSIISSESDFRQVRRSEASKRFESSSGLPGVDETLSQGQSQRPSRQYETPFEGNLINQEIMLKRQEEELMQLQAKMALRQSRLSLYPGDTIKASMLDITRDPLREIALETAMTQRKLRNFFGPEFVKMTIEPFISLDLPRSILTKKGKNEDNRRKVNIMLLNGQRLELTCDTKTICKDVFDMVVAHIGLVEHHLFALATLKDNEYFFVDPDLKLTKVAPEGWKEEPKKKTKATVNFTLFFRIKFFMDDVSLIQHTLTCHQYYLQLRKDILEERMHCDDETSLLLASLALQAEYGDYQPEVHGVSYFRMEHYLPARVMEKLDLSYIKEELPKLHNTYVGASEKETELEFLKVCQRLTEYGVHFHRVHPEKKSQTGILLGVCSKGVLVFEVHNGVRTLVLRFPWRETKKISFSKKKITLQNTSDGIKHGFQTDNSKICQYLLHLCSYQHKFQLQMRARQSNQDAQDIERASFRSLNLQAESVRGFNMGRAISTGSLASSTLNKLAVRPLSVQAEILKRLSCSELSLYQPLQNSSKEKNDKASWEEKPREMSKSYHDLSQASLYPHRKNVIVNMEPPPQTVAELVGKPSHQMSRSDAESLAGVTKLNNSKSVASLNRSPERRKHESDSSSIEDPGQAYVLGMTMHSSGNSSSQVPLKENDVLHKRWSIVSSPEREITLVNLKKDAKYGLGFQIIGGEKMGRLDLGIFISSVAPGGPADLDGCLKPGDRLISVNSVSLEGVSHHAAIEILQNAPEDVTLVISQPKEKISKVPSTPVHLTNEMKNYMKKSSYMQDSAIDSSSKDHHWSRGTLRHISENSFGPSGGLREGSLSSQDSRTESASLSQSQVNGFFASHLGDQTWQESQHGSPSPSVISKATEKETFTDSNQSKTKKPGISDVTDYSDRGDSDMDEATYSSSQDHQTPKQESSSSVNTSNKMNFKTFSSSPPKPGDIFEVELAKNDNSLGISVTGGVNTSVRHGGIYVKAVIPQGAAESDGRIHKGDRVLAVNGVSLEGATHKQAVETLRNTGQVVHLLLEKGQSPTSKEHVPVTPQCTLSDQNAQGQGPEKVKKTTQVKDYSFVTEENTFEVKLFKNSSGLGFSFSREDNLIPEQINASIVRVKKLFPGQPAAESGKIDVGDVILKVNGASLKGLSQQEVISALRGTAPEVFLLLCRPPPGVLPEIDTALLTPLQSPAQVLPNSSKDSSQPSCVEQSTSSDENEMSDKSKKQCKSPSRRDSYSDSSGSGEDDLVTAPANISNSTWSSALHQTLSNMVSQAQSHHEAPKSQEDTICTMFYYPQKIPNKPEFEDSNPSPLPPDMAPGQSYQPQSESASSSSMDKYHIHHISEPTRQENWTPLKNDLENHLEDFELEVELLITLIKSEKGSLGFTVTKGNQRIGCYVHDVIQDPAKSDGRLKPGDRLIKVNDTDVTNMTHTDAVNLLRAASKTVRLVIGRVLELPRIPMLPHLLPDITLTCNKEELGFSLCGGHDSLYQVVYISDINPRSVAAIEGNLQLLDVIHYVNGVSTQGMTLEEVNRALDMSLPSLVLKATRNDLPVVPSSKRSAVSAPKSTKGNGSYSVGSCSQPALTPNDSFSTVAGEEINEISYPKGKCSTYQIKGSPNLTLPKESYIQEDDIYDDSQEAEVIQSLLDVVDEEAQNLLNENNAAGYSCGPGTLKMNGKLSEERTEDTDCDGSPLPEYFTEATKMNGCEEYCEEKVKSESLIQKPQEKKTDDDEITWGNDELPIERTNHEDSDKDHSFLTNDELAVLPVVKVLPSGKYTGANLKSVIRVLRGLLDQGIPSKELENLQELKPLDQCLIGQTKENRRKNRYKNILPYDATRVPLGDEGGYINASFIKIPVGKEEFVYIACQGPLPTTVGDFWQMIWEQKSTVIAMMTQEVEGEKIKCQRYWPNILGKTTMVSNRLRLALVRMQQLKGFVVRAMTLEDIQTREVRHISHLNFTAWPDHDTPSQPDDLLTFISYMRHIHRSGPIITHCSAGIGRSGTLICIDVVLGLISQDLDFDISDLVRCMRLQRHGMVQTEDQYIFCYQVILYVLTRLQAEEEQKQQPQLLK

B1: synergin gamma, endogenous (protein, UniProt Q9UMZ2 1-1314)
chain: MALRPGAGSGGGGAAGAGAGSAGGGGFMFPVAGGIRPPQAGLMPMQQQGFPMVSVMQPNMQGIMGMNYSSQMSQGPIAMQAGIPMGPMPAAGMPYLGQAPFLGMRPPGPQYTPDMQKQFAEEQQKRFEQQQKLLEEERKRRQFEEQKQKLRLLSSVKPKTGEKSRDDALEAIKGNLDGFSRDAKMHPTPASHPKKPGPSLEEKFLVSCDISTSGQEQIKLNTSEVGHKALGPGSSKKYPSLMASNGVAVDGCVSGTTTAEAENTSDQNLSIEESGVGVFPSQDPAQPRMPPWIYNESLVPDAYKKILETTMTPTGIDTAKLYPILMSSGLPRETLGQIWALANRTTPGKLTKEELYTVLAMIAVTQRGVPAMSPDALNQFPAAPIPTLSGFSMTLPTPVSQPTVIPSGPAGSMPLSLGQPVMGINLVGPVGGAAAQASSGFIPTYPANQVVKPEEDDFQDFQDASKSGSLDDSFSDFQELPASSKTSNSQHGNSAPSLLMPLPGTKALPSMDKYAVFKGIAADKSSENTVPPGDPGDKYSAFRELEQTAENKPLGESFAEFRSAGTDDGFTDFKTADSVSPLEPPTKDKTFPPSFPSGTIQQKQQTQVKNPLNLADLDMFSSVNCSSEKPLSFSAVFSTSKSVSTPQSTGSAATMTALAATKTSSLADDFGEFSLFGEYSGLAPVGEQDDFADFMAFSNSSISSEQKPDDKYDALKEEASPVPLTSNVGSTVKGGQNSTAASTKYDVFRQLSLEGSGLGVEDLKDNTPSGKSDDDFADFHSSKFSSINSDKSLGEKAVAFRHTKEDSASVKSLDLPSIGGSSVGKEDSEDALSVQFDMKLADVGGDLKHVMSDSSLDLPTVSGQHPPAADIEDLKYAAFGSYSSNFAVSTLTSYDWSDRDDATQGRKLSPFVLSAGSGSPSATSILQKKETSFGSSENITMTSLSKVTTFVSEDALPETTFPALASFKDTIPQTSEQKEYENRDYKDFTKQDLPTAERSQEATCPSPASSGASQETPNECSDDFGEFQSEKPKISKFDFLVATSQSKMKSSEEMIKSELATFDLSVQGSHKRSLSLGDKEISRSSPSPALEQPFRDRSNTLNEKPALPVIRDKYKDLTGEVEENERYAYEWQRCLGSALNVIKKANDTLNGISSSSVCTEVIQSAQGMEYLLGVVEVYRVTKRVELGIKATAVCSEKLQQLLKDIDKVWNNLIGFMSLATLTPDENSLDFSSCMLRPGIKNAQELACGVCLLNVDSRSRKEEKPAEEHPKKAFNSETDSFKLAYGGHQYHASCANFWINCVEPKPPGLVLPDLL
B2: Sec24A, endogenous (protein, UniProt O95486 1-1093)
chain: MSQPGIPASGGAPASLQAQNGAALASGSPYTNGPVQNALLSSQESVSQGYNFQLPGSYPHPIPAKTLNPVSGQSNYGGSQGSGQTLNRPPVASNPVTPSLHSGPAPRMPLPASQNPATTPMPSSSFLPEANLPPPLNWQYNYPSTASQTNHCPRASSQPTVSGNTSLTTNHQYVSSGYPSLQNSFIKSGPSVPPLVNPPLPTTFQPGAPHGPPPAGGPPPVRALTPLTSSYRDVPQPLFNSAVNQEGITSNTNNGSMVVHSSYDEIEGGGLLATPQLTNKNPKMSRSVGYSYPSLPPGYQNTTPPGATGVPPSSLNYPSGPQAFTQTPLGANHLTTSMSGLSLQPEGLRVVNLLQERNMLPSTPLKPPVPNLHEDIQKLNCNPELFRCTLTSIPQTQALLNKAKLPLGLLLHPFKDLVQLPVVTSSTIVRCRSCRTYINPFVSFLDQRRWKCNLCYRVNDVPEEFLYNPLTRVYGEPHRRPEVQNATIEFMAPSEYMLRPPQPPVYLFVFDVSHNAVETGYLNSVCQSLLDNLDLLPGNTRTKIGFITFDSTIHFYGLQESLSQPQMLIVSDIEDVFIPMPENLLVNLNESKELVQDLLKTLPQMFTKTLETQSALGPALQAAFKLMSPTGGRMSVFQTQLPTLGVGALKPREEPNHRSSAKDIHMTPSTDFYKKLALDCSGQQVAVDLFLLSGQYSDLASLGCISRYSAGSVYYYPSYHHQHNPVQVQKLQKELQRYLTRKIGFEAVMRIRCTKGLSIHTFHGNFFVRSTDLLSLPNVNPDAGYAVQMSVEESLTDTQLVSFQSALLYTSSKGERRIRVHTLCLPVVSTLNDVFLGADVQAISGLLANMAVDRSMTASLSDARDALVNAVIDSLSAYRSSVLSNQQPGLMVPFSLRLFPLFVLALLKQKSFQTGTNARLDERIFAMCQVKNQPLVYLMLTTHPSLYRVDNLSDEGALNISDRTIPQPPILQLSVEKLSRDGAFLMDAGSVLMLWVGKNCTQNFLSQVLGVQNYASIPQPMTDLPELDTPESARIIAFISWLREQRPFFPILYVIRDESPMKANFLQNMIEDRTESALSYYEFLLHIQQQVNK

The molecules below were run against Cx36-EGFP (UniProt O54851) (assay: proximity labelling; BioID (BLITZ): HEK293T co-transfected with Cx36-EGFP, Cx36 and V5-dGBP-TurboID, 50 µM biotin for 3 h; streptavidin beads; mass spectrometry and western blot; control: cells with V5-TurboID-dGBP only).

binding	Molecule
binds	protein tyrosine phosphatase non-receptor type 13 (PTPN13), endogenous (from UniProt Q12923 1-2485)
binds	B1
binds	B2

Results are given in words; binding and its absence hold for the method and conditions named. Binding seen in cells or lysates may run through a third protein. A yes stands for co-enrichment or nearness to the bait. Other partners may have been found.
